Holding throughout (assay): FRET or BRET
On the technique in general: Bioluminescence resonance energy transfer reports proximity on the nanometre scale.

Chains of the proteins cited; added tags and fusions are not shown. Residues count along the entry.
UniProt Q14832, residues 23-879: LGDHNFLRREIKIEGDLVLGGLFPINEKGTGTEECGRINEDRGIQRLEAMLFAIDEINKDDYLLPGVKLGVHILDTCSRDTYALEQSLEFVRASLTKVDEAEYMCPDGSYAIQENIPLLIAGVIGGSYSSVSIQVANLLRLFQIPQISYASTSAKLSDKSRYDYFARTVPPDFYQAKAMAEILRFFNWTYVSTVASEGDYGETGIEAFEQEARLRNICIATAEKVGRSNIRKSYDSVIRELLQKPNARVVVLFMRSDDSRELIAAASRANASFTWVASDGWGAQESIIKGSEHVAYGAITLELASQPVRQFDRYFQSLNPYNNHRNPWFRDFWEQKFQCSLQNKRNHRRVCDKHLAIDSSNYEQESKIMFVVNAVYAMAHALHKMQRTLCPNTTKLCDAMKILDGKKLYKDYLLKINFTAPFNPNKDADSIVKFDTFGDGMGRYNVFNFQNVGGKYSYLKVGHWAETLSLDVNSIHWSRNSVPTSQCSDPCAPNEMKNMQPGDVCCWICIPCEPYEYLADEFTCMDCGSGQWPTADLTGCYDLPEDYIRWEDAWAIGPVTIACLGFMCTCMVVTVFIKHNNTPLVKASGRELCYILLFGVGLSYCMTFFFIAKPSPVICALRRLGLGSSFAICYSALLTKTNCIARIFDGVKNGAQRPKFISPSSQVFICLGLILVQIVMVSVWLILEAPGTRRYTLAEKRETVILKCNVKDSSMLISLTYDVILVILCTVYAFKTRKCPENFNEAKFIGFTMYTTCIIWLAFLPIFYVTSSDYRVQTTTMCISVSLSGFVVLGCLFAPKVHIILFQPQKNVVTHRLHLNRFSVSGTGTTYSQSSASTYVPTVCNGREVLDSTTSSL
UniProt Q14416, residues 19-872: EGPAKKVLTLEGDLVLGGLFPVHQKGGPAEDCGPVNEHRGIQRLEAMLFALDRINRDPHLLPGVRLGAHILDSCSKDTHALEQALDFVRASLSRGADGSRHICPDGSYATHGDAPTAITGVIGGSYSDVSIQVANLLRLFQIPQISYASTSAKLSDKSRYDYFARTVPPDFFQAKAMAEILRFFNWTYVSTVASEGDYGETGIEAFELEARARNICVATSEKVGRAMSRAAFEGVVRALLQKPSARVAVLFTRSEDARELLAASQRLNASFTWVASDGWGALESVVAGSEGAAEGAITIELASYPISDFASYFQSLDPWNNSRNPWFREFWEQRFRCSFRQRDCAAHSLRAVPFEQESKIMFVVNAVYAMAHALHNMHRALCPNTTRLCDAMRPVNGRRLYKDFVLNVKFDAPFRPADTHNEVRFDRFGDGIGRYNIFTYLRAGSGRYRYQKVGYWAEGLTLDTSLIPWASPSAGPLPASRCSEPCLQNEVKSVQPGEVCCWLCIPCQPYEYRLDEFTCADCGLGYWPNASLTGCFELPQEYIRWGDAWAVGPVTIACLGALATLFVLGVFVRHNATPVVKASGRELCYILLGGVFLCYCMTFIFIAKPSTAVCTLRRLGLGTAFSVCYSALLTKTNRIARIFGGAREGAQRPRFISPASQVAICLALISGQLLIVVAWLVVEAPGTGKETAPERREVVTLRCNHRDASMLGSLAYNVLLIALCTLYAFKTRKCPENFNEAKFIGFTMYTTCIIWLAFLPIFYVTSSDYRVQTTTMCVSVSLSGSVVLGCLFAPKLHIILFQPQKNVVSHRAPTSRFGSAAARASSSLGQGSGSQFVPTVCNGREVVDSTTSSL
UniProt Q14833, residues 33-912: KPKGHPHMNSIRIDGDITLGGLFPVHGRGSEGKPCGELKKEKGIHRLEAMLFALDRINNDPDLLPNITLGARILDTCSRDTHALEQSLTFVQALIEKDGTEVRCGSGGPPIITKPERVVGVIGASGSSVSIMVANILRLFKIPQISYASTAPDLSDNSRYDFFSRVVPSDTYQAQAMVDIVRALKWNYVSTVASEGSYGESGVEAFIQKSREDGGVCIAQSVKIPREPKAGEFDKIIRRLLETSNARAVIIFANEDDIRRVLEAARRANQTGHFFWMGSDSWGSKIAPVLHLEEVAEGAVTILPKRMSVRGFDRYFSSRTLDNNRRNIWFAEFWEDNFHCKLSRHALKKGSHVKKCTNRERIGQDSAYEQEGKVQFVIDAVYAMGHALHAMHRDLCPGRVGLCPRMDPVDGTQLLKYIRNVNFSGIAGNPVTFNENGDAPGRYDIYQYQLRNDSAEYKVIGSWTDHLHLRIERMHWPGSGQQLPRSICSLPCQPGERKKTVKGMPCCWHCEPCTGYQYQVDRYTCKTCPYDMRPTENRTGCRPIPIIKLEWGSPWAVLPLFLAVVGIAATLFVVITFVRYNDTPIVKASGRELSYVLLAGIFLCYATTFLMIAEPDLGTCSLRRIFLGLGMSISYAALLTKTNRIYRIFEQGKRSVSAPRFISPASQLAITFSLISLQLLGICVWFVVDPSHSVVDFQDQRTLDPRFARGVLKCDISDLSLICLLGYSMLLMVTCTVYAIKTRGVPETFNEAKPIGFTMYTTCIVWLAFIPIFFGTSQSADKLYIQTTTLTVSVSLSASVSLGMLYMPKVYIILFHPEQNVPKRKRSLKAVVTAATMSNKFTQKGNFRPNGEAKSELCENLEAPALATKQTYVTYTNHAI
UniProt O00222, residues 34-908: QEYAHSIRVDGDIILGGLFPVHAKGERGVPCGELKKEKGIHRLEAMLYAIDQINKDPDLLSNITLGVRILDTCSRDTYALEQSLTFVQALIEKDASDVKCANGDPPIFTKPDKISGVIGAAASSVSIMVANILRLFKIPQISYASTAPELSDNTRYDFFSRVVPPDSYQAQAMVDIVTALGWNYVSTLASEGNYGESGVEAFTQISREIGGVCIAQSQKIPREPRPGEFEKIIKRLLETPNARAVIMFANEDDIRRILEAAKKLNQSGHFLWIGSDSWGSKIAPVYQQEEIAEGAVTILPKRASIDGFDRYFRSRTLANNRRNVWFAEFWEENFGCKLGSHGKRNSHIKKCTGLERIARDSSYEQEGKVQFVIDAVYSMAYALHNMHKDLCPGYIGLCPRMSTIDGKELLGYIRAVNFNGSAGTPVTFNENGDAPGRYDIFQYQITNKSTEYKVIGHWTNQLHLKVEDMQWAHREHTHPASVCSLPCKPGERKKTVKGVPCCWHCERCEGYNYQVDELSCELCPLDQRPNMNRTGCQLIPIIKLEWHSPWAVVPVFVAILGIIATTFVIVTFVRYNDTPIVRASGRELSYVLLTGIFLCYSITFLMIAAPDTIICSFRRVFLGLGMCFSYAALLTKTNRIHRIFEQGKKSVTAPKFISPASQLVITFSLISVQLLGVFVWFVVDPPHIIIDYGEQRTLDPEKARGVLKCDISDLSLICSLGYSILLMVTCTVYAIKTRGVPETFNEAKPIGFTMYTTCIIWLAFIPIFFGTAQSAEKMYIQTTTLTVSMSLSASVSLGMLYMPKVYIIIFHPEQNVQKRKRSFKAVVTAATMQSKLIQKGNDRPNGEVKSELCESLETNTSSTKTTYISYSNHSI
UniProt P49407: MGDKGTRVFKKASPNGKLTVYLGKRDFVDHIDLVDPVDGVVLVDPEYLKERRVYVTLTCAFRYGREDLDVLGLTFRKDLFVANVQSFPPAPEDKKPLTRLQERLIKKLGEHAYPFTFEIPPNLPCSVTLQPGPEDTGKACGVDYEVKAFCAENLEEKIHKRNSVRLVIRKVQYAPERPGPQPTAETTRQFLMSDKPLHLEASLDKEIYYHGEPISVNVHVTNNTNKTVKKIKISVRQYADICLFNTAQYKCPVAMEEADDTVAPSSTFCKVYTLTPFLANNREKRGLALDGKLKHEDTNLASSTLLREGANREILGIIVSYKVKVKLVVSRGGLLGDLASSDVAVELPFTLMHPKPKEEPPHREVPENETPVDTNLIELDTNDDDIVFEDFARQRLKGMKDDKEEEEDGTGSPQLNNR
UniProt P32121: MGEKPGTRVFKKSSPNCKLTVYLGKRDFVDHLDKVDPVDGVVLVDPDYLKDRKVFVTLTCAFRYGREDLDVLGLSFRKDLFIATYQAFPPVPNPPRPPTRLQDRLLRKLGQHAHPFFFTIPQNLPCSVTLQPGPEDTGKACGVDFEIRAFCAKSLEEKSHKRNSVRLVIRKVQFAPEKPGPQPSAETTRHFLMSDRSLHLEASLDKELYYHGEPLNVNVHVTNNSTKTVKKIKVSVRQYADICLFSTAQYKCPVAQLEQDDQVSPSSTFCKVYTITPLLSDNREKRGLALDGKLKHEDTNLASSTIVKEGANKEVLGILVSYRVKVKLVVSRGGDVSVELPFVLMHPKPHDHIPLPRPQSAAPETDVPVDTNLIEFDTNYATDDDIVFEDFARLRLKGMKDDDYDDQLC

Assay [1] deals with SNAP-mGlu3 (metabotropic glutamate receptor 3, N-terminal FLAG-SNAP tag) (human) (UniProt Q14832).
In assay [2] the target is mGlu3-Venus (metabotropic glutamate receptor 3 with Venus at the C-terminal domain) (human) (UniProt Q14832).
Assay [3] concerns the target mGlu2-Venus (metabotropic glutamate receptor 2 with Venus at the C-terminal domain) (human) (UniProt Q14416).
The target in assay [4] is mGlu4-Venus (metabotropic glutamate receptor 4 with Venus at the C-terminal domain) (human) (UniProt Q14833).

These are yes or no findings as the source states them, for the method shown. Binding seen in cells or lysates may run through a third protein. Some results given as binding are weak or reduced against the parent protein; the word gives no strength.

For the substance “CLIP-mGlu8 (metabotropic glutamate receptor 8, N-terminal FLAG-CLIP tag) (from UniProt O00222 34-908)”, the binding entry in assay [1] was “binds”.

For the substance “β-arrestin 1 tagged with RLuc8 at the C-terminal domain (from UniProt P49407 1-418)”, the values for the binding entry in assay [2], in assay [3] and in assay [4] were “binds”, “no binding” and “no binding”, respectively.

As for “β-arrestin 2 tagged with RLuc8 at the C-terminal domain (from UniProt P32121 1-409)”, the binding entry in assay [2] is recorded as “binds”; in assay [3], “no binding”; in assay [4], “no binding”.
